# Measured values published in patent publication US11699530B2, “Use of multivariate analysis to assess treatment approaches” (RENSSELAER POLYTECHNIC INSTITUTE, priority 2018, dated 2023).
# At least one compound was matched to its structure with a doubt left. Some entries share one result that the patent states for a list of compounds.
# Key:
# [1] = system: FOCM/TS metabolic profiles of individuals with ASD; experiment: FDA model evaluation of clinical trial treatment data (Type II error and discriminant score shift); assay type: in vivo, children; details: for increase in rate of ASD misclassification: FDA model on clinical trial data sets
# Method: MeCbl+LDFA Treatment Data. Subcutaneously injected MeCbl (75 μg/kg, once every three days) in combination with oral LDFA (400 μg, twice per day) was given to children with autism in a 12-week open-label trial. Included children were aged 2 to 7 years and met the diagnostic criteria for autism as defined by the DSM-IV in addition to having a Childhood Autism Rating Scales score greater than 30. Boys and girls made up 82% and 18% of participants in this study, respectively. The IRB at the University of Arkansas for Medical Sciences approved the protocol for this study.
# BH4 Treatment Data. A 16-week open-label trial investigated the effects of orally administered BH4 (20 mg/kg, once per day) in children aged 2 to 6 years old with a previous diagnosis of ASD that was confirmed at the time of evaluation with DSM-IV criteria. […] Study participants were 90% males. Approval for this study was given by the IRB at the University of Texas Health Science Center at Houston, Tex. FOCM/TS markers were measured at 8 and 16 weeks following the onset of treatment in this trial; to maintain consistency with the other trials where markers were measured after 12 weeks, the averages of the measurements taken at 8 and 16 weeks were used.
# HDFA Treatment Data. […]
# Biochemical Measurements. Concentrations and ratios of metabolites in the FOCM and TS pathways were measured in each of the above studies, with fifteen measurements appearing in all four data sets. […] The remaining nine measures were precursors of glutathione or markers of redox metabolism: total cysteine, glutamylcysteine (Glu-Cys), cysteinylglycine (Cys-Gly), total and free reduced glutathione (tGSH and fGSH, respectively), oxidized glutathione (GSSG), the ratios of total and free reduced glutathione to oxidized glutathione (tGSH/GSSG and fGSH/GSSG, respectively; these are indicators of intracellular oxidative stress), and percent oxidized glutathione (a derived measure calculated as 2GSSG/[GSH+2GSSG]). […]
# ASD-related symptoms = details: cited from earlier work
Compound,increase in rate of ASD misclassification [1],change in Type II error / correction of metabolic abnormalities (in words) ([1]; comparison among treatments),outcome of double-blind placebo-controlled study (ASD-related symptoms; after six months of treatment),outcome of more recent trial (ASD-related symptoms; individuals with ASD)
"C[C@H](O)[C@H](O)[C@H]1CNc2nc(N)[nH]c(=O)c2N1 [BH4, tetrahydrobiopterin]",more than 40%,just slightly smaller,increases in social interaction,"significant improvements in ASD-related mannerisms, hyperactivity, inappropriate speech, and social awareness"
methylcobalamin (MeCbl) in combination with low-dose folinic acid (LDFA) [MeCbl + LDFA],more than 40%,–,–,–
